Assay results as given in the supplement of paper PMC12542422.
Counter-ions that a name gives are not always drawn. ± gives the standard deviation of the averaged measurements. This is one part of the list. These are raw signals, not scaled to a control.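 Across three biological replicates, HeLa cells were imaged for ribosome assembly using ENP1 staining (export block present or absent) or inducible tagged ribosomal protein reporters. Machine learning classified each cell's signal localization relative to DMSO controls. Hits exceeded the DMSO false-positive mean by five standard deviations and were then visually confirmed.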

Tested on: HeLa K (ENP1 immunofluorescence, +LMB)
Assay: fraction of cells with nucleolar or nucleolar/nucleoplasmic ENP1 signal (MainHitrate); higher = more cells with nucleolar/nuclear readout signal (for ENP1 -LMB: less RNAPI inhibition; for +LMB ENP1 and RP reporters: stronger nuclear/nucleolar retention, i.e. ribosome biogenesis defect)
Settings: concentration: 1 µM; treatment time: 6 h; ENP1 +LMB; leptomycin B: 20 nM, last 1.5 h

Structure (SMILES)	fraction
CN(C)CCCN1c2ccccc2CCc2ccc(Cl)cc21 [Clomipramine hydrochloride (Anafranil)]	0.149 ± 0.22
CCCCCCCCCCCCCCCC[N+](C)(C)C [Cetrimonium Bromide]	0.0283 ± 0.024
CCOc1nc2cccc(C(=O)OCc3oc(=O)oc3C)c2n1Cc1ccc(-c2ccccc2-c2noc(=O)[nH]2)cc1 [Azilsartan Medoxomil (TAK-491)]	0.0843 ± 0.082
O=C1CCc2ccc(OCCCCN3CCN(c4cccc(Cl)c4Cl)CC3)cc2N1 [Aripiprazole (Abilify)]	0.0683 ± 0.084
Oc1ccc(/C=C/c2cc(O)cc(O)c2)cc1 [Resveratrol]	0.103 ± 0.071
COc1ccc(-n2nc(C(N)=O)c3c2C(=O)N(c2ccc(N4CCCCC4=O)cc2)CC3)cc1 [Apixaban]	0.0785 ± 0.087
Nc1ccc(/N=N/c2ccccc2)c(N)n1 [Phenazopyridine HCl]	0.105 ± 0.15
N#Cc1ccc(C(c2ccc(C#N)cc2)n2cncn2)cc1 [Letrozole]	0.0865 ± 0.11
CCN(CC)CCOc1ccc(C(=C(Cl)c2ccccc2)c2ccccc2)cc1 [Clomifene citrate (Serophene)]	0.112 ± 0.17

Tested on: HeLa K (ENP1 immunofluorescence, no LMB)
Assay: as above
Settings: concentration: 1 µM; treatment time: 6 h; ENP1 -LMB; leptomycin B: none

Structure (SMILES)	fraction
CC[C@H](C)C(=O)O[C@H]1C[C@H](O)C=C2C=C[C@H](C)[C@H](CC[C@@H](O)C[C@@H](O)CC(=O)O)[C@H]21 [Pravastatin sodium]	0.988 ± 0.021
CO[C@H]1/C=C/O[C@@]2(C)Oc3c(C)c(O)c4c(O)c(c(/C=N/N5CCN(C)CC5)c(O)c4c3C2=O)NC(=O)/C(C)=C\C=C\[C@H](C)[C@H](O)[C@@H](C)[C@@H](O)[C@@H](C)[C@H](OC(C)=O)[C@@H]1C [Rifampin (Rifadin, Rimactane)]	0.9989 ± 0.0019
CC(=O)O[C@]1(C(C)=O)CC[C@H]2[C@@H]3C[C@H](C)C4=CC(=O)C=C[C@]4(C)[C@@]3(F)[C@@H](O)C[C@@]21C [Fluorometholone Acetate]	0.992 ± 0.014
CCCCCCCCCCCCCCCCCCCCCCO [Docosanol (Abreva)]	0.9985 ± 0.0026
O=c1[nH]c(=O)n(C2CCCO2)cc1F (stereo unspecified) [Ftorafur]	0.9987 ± 0.0022
CN(C)CCCOc1nn(Cc2ccccc2)c2ccccc12 [Benzydamine Hydrochloride]	0.991 ± 0.016
O=C(Nc1c(Cl)cncc1Cl)c1ccc(OC(F)F)c(OCC2CC2)c1 [Roflumilast (Daxas)]	0.988 ± 0.02
CCc1c(Cl)c(O)c(Cl)c(O)c1C(=O)O[C@H]1[C@H](O)[C@H](OC)[C@H](OC/C2=C\C=C\C[C@H](O)/C(C)=C/[C@H](CC)[C@@H](O[C@@H]3OC(C)(C)[C@@H](OC(=O)C(C)C)[C@H](O)[C@@H]3O)/C(C)=C/C(C)=C/C[C@@H]([C@@H](C)O)OC2=O)O[C@@H]1C [Fidaxomicin]	0.987 ± 0.023
COc1cc2nc(N3CCN(C(=O)C4CCCO4)CC3)nc(N)c2cc1OC (stereo unspecified) [Terazosin HCl (Hytrin)]	0.9955 ± 0.0078
C=CCc1cc(OC)c(O)c(C(=O)NCCO)c1 [Alibendol]	0.985 ± 0.025
CC(=O)N1CCN(c2ccc(OCC3COC(Cn4ccnc4)(c4ccc(Cl)cc4Cl)O3)cc2)CC1 (stereo unspecified) [Ketoconazole]	0.9986 ± 0.0024
N#C[C@@H]1CCCN1C(=O)CNC12CC3CC(CC(O)(C3)C1)C2 [Vildagliptin (LAF-237)]	0.9985 ± 0.0027
O=C(O)C1(C(=O)O)CCC1.[NH2-].[NH2-].[Pt+2] [Carboplatin]	0.9983 ± 0.0029
Cc1cn([C@H]2C[C@H](N=[N+]=[N-])[C@@H](CO)O2)c(=O)[nH]c1=O [Zidovudine (Retrovir)]	0.985 ± 0.026
O=P(O)(O)C(O)(Cc1cccnc1)P(=O)(O)O [Risedronate sodium]	0.9982 ± 0.0031
CC(C)Cc1ccc(C(C)C(=O)O)cc1 (stereo unspecified) [Ibuprofen (Advil)]	0.9981 ± 0.0033
CN(C)CCN1C(=O)c2ccccc2N(C)c2ccccc21 [Dibenzepine HCl]	0.9959 ± 0.0071
CN[C@@H]1[C@H](O)[C@H](NC)[C@H]2O[C@@]3(O)C(=O)C[C@@H](C)O[C@H]3O[C@@H]2[C@H]1O [Spectinomycin  hydrochloride]	0.994 ± 0.01
CCCN(CCC)CCc1cccc2c1CC(=O)N2 [Ropinirole HCl]	0.985 ± 0.025
COc1ccc(-c2ccc3cc(C(=O)O)ccc3c2)cc1C12CC3CC(CC(C3)C1)C2 [Adapalene]	0.9981 ± 0.0034
Nc1ccn([C@H]2CC[C@@H](CO)O2)c(=O)n1 [Zalcitabine]	0.9986 ± 0.0024
O=C1CC[C@@H](C(=O)N2CSC[C@H]2C(=O)O)N1 [Pidotimod]	0.988 ± 0.021

Exported in markdown: part of the list above.

| Structure (SMILES) | fraction |
| --- | --- |
| CCc1c(Cl)c(O)c(Cl)c(O)c1C(=O)O[C@H]1[C@H](O)[C@H](OC)[C@H](OC/C2=C\C=C\C[C@H](O)/C(C)=C/[C@H](CC)[C@@H](O[C@@H]3OC(C)(C)[C@@H](OC(=O)C(C)C)[C@H](O)[C@@H]3O)/C(C)=C/C(C)=C/C[C@@H]([C@@H](C)O)OC2=O)O[C@@H]1C [Fidaxomicin] | 0.987 ± 0.023 |
| COc1cc2nc(N3CCN(C(=O)C4CCCO4)CC3)nc(N)c2cc1OC (stereo unspecified) [Terazosin HCl (Hytrin)] | 0.9955 ± 0.0078 |
